About 3,700 (1.2%) of roughly 300,000 compounds were called active. Inconclusive means that the source gave no clear call. Such entries were picked first, then a sample of the others. Calls come from the whole dose curve; tested in HEK293 cells. Potencies of inconclusive entries are doubtful fits and often do not repeat.
assay: qHTS for Inhibitors of binding or entry into cells for Lassa Virus; conditions: Lassa virus pseudotype entry inhibition, cell reporter; series mostly up to 37.9 µM; note: nearly all actives have a fitted effect of over 50% in size
Potency is the fitted concentration of half-maximal effect.

Row | SMILES | Potency
1 | CCOC(=O)c1ccc(NC(=O)CSc2nc(-c3ccc(OC)cc3)cc(C(F)(F)F)c2C#N)cc1 | inactive
2 | Cc1ccc(Sc2cnn(-c3ccccc3)c(=O)c2Cl)cc1 | inconclusive: 15.8 µM [inhibitor, single point]
3 | O=C(O)COCC(=O)NCc1nc(-c2ccc(C(F)(F)F)cc2)no1 | inactive
4 | COC(=O)c1nn(-c2ccc(C)cc2)ccc1=O | inactive
5 | CCOC(=O)c1ccccc1NC(=O)CC1SC(=NC)N(C)C1=O (stereo not given) | inactive
6 | Cc1ccc(C2=NN(C(=O)CSc3nccn3C)C(c3ccco3)C2)cc1 (stereo not given) | inconclusive: 3.55 µM [inhibitor, full curve, poor fit]
7 | CCOc1ccc(C2CC(=O)NC(NC(=O)c3cccc(Cl)c3)=N2)cc1 (stereo not given) | inconclusive: 2.24 µM [inhibitor, full curve, poor fit]
8 | COc1ccc(Cn2nnnc2C(c2ccc(N(C)C)cc2)N2CCC(C(N)=O)CC2)cc1 (stereo not given) | inconclusive: 1.12 µM [inhibitor, partial curve, poor fit]
9 | Cc1ccc(NC(=O)c2ccccc2-c2ccccc2C(=O)O)cc1C | inconclusive: 5.62 µM [inhibitor, single point]
10 | COc1cc(C2c3c(oc4ccccc4c3=O)C(=O)N2c2ccc(C)cn2)ccc1O (stereo not given) | inconclusive: 29.1 µM [inhibitor, single point]
11 | COc1ccccc1CNC(=O)CCCn1c(=O)c2ccccc2n(Cc2ccc(F)cc2)c1=O | inactive
12 | Cc1cc(O)ccc1NS(=O)(=O)c1ccc2c3c(cccc13)C(=O)N2 | inconclusive: 14.1 µM [activator, single point]
13 | CCOC(=O)C1CCCN(C(=O)COc2ccc(S(=O)(=O)N3CCOCC3)cc2)C1 (stereo not given) | inconclusive: 1.12 µM [inhibitor, single point]
14 | CCOC(=O)C1CCN(S(=O)(=O)c2nc3nc(C)cc(C)n3n2)CC1 | inactive
15 | Cc1ccc(C(=O)N2CCc3ccccc32)cc1 | inconclusive: 14.6 µM [activator, partial curve, poor fit]
16 | CCNC(=S)N/N=C/c1cccc(OCc2c(F)cccc2Cl)c1 | active: 9.2 µM
17 | O=S1(=O)c2cccc3cccc(c23)N1Cc1ccc(-c2nnco2)cc1 | inconclusive: 1.26 µM [inhibitor, single point]
18 | CCNCc1cc(Br)c(OCC(=O)Nc2ccccc2)c(OC)c1 | inactive
19 | CC(=O)N/C(=N\c1nc(C)cc(C)n1)Nc1ccc2ccccc2c1 | inactive
20 | O=C1/C(=C/c2ccsc2)CC/C1=C\c1cccs1 | inconclusive: 2.59 µM [inhibitor, full curve, poor fit]
21 | CCN(CC)S(=O)(=O)c1ccc(NC(=O)CN(c2cccc(C)c2)S(C)(=O)=O)cc1 | inconclusive: 12.6 µM [inhibitor, partial curve, poor fit]
22 | CC(=NNC(=S)Nc1cccc(Cl)c1)c1ccccn1 | active: 1.12 µM
23 | CC(=O)/C(N=Nc1ccc2c(c1)OCCO2)=C(\C)O | inconclusive: 29.1 µM [inhibitor, single point]

Shown in CSV form: 2 of the compounds above
Row,SMILES,Potency
14,CCOC(=O)C1CCN(S(=O)(=O)c2nc3nc(C)cc(C)n3n2)CC1,inactive
17,O=S1(=O)c2cccc3cccc(c23)N1Cc1ccc(-c2nnco2)cc1,"inconclusive: 1.26 µM [inhibitor, single point]"

Next part.

Row | SMILES | Potency
24 | COc1ccccc1C(=O)Nc1ccc(C(=O)O)cc1 | inactive
25 | O=C(CN(Cc1ccccc1)C(=O)CNS(=O)(=O)c1ccccc1)NCc1ccco1 | inconclusive: 0.891 µM [inhibitor, single point]
26 | CCC(c1nnnn1Cc1ccc2c(c1)OCO2)N1CCN(c2ccc(F)cc2)CC1 (stereo not given) | inconclusive: 12.6 µM [inhibitor, single point]
27 | Cc1nn(-c2ccccc2)c(Cl)c1/C=N/NC(=O)CNC(=O)c1ccccc1Cl | inconclusive: 29.1 µM [inhibitor, single point]
28 | CCN(CC)S(=O)(=O)c1ccc(N/N=C/c2ccc(O)cc2O)nc1 | active: 2.31 µM
29 | CCc1ccc(NSc2ccccc2[N+](=O)[O-])cc1 | inconclusive: 25.9 µM [inhibitor, single point]
30 | COc1ccc(C(=O)NC(=S)Nc2ccc(S(=O)(=O)Nc3cc(OC)ncn3)cc2)cc1 | inconclusive: 4.47 µM [inhibitor, full curve, poor fit]
31 | CCc1ccc(NC(=O)N2c3ccccc3Sc3ccccc32)cc1 | inconclusive: 2.82 µM [activator, single point]
32 | O=C(NC(=S)Nc1ccccc1N1CCN(C(=O)c2ccccc2)CC1)c1ccccc1F | inconclusive: 31.6 µM [inhibitor, single point]
33 | CCN(Cc1ccccc1)S(=O)(=O)c1ccc2c(c1)CCCN2C(C)=O | inconclusive: 7.94 µM [inhibitor, partial curve, poor fit]
34 | COc1ccccc1N(CC(O)Cn1c2ccccc2c2ccccc21)S(=O)(=O)c1ccccc1 (stereo not given) | active: 25.9 µM
35 | Cc1ccc(C)c(Cn2cnc3c(cnn3-c3ccc(F)cc3)c2=O)c1 | inconclusive: 0.891 µM [inhibitor, full curve, poor fit]
36 | O=C(/C=C/c1cccs1)c1cc(F)ccc1OC(=O)N1CCOCC1 | inactive
37 | CCOC(=O)C(Cc1ccccc1)NC(=O)CNC(=O)CNC(=O)OCc1ccccc1 (stereo not given) | inactive
38 | Cc1cccc(OCC(=O)N(C)CCc2ccccn2)c1 | inactive
39 | CC(=O)N1CCN(S(=O)(=O)c2cccc(C(=O)Nc3ccccc3N3CCCCC3)c2)CC1 | inactive
40 | COc1ccc2cc3c(N)nn(C(=O)c4cccc([N+](=O)[O-])c4)c3nc2c1 | inconclusive: 2.82 µM [activator, single point]
41 | COc1ccc(N=C(NN)c2ccc3ccccc3n2)cc1 | inconclusive: 18.4 µM [inhibitor, single point]
42 | O=C(CSc1ncccn1)Nc1ccc2c(c1)OCO2 | inconclusive: 10 µM [activator, partial curve]
43 | CCOC(=O)c1ccc(NC(=O)c2nc(SC(C)C)ncc2Cl)cc1 | inconclusive: 2 µM [activator, partial curve, poor fit]
44 | COc1cc(/C=C2\C(=N)N3N=CSC3=NC2=O)ccc1OS(=O)(=O)c1ccccc1 | inactive
45 | COCCn1c(SCc2ccccc2Cl)nc2c1c(=O)[nH]c(=O)n2C | inconclusive: 14.1 µM [inhibitor, partial curve]
